For at least one compound, name, drawing or mass did not settle the structure.
Columns and labels:
Type in all cases: cell-based, human
[1] = tested on: mutant TetR-EGFP; assay: Flow cytometer fluorescence of HEp-2 cells expressing mutant TetR-EGFP; conditions: 1.5 μg/ml doxycycline, measured every eight hours
Description: (§1) All of or any two mutations in combination from three types of mutations, which substitute aspartic acid at the 95th position with asparagine, leucine at the 101st position with serine and glycine at the 102nd position with aspartic acid, were introduced into the tetracycline repressor (TetR), which is an Escherichia coli protein that binds to the antibiotic tetracycline (Tet). The procedure was as follows:
An oligonucleotide encoding an amino acid sequence containing the amino acid substitution to be introduced was synthesized, and this was used to prepare a DNA fragment containing a mutation by PCR reaction. […]
(§2) An oligo-DNA was synthesized, having a base sequence in which the termination codon has been substituted so as to encode another amino acid instead of the termination codon in the TetR gene, and downstream thereof, a sequence that is recognized and cut by a restriction enzyme; this was used to carry out a PCR reaction to prepare a DNA fragment encoding TetR with no termination codon, and this was substituted with the corresponding site on the DNA encoding the wild-type gene. Then, the DNA was cut by a restriction enzyme and ligated with the upstream side of a DNA fragment encoding EGFP in such a way that the translation open reading frames for protein synthesis match (FIG. 1A). […]

Sequences of proteins named here, by UniProt entry; tags and fusion partners are left off. A change or cut given only in a name is not applied to a line headed by its entry.
UniProt P04483: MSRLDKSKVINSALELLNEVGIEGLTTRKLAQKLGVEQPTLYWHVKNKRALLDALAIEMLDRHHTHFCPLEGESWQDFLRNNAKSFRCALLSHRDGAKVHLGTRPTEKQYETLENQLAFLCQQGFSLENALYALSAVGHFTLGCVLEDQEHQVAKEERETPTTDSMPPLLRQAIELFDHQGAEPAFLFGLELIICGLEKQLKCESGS

[2] = target: T1, wild-type TetR-EGFP (Escherichia coli, UniProt P04483); assay: Flow cytometer fluorescence of HEp-2 cells expressing wild-type TetR-EGFP; conditions: 1.5 mg/ml doxycycline, four days
T1 construct: prepare a DNA fragment encoding TetR with no termination codon; expressed in transfected cells; host or cells: human cell line HEp-2, vector pEB6CAG
Description: as §1
Next, cDNAs encoding TetR-EGFP in which wild-type TetR gene and mutation-introduced TetR gene, respectively, are fused with green fluorescent protein (EGFP) were created. The procedure was as follows.
as §2

[3] = tested on: pOSTet15-eTetRDTAEGFP; assay: Surviving cell count of HEp-2 with diphtheria toxin A gene under dual control (eTetR); conditions: toxin gene DTA

C[C@H]1c2cccc(O)c2C(=O)C2=C(O)[C@]3(O)C(=O)C(C(N)=O)=C(O)[C@@H](N(C)C)[C@@H]3[C@@H](O)[C@@H]21 [doxycycline]
time after addition at which fluorescence had almost reached equilibrium [1]: 24 h
change in fluorescence [2]: no change
effect on cells when doxycycline was added [3]: killing the cells
